This series deals with GST-LlWRKY22 (Lilium longiflorum ('White Heaven')). The series is described as follows: EMSA. The following applies: EMSA kit (Thermo Fisher), 5'-biotin probes; pH and temperature not stated; recombinant protein; protein details: N-terminal GST (pGEX-4T-1); label: 5' biotin.

Here are results for 2 sequences from PMC9627522.

The exact form of at least one protein or probe is not confirmed.

As for “ACTTCGTTGACCCAGCGGAGACAGATAGGTGAGACTGCCGAAGGCCGCTCGTGGTCGAGTTTCCCTTGACCTCGAC (double strand) [2B-probe (LlDREB2B promoter, tandem W-boxes)]”, the binding result is “binds”. To “CTAGAGCGGTGCTCCTCTATCCTTTTGACATTTGCAAAGTCAATCACGCGGGAAACGAAAAATCCGGA (double strand) [22-probe (LlWRKY22 promoter, tandem W-boxes)]” belongs “binds”.
